Assay results from publication doi:10.1101/2021.11.19.469212.

By UniProt entry, the sequences of proteins in these tests, tags left out.
UniProt Q96CW1: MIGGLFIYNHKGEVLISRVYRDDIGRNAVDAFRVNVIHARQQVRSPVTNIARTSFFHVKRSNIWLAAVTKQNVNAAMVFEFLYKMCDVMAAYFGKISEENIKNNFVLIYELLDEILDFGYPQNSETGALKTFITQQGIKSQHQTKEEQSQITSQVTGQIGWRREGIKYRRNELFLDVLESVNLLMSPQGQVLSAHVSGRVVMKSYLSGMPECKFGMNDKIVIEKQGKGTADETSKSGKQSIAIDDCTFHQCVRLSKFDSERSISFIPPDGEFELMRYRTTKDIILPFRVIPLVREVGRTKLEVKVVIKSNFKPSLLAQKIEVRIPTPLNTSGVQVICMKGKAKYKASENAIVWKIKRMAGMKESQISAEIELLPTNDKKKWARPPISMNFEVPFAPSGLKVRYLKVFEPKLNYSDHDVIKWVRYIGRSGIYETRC

Tests used:
Experiment in all cases: proximity labelling
[1] = target: T1, V5-TurboID-CLCa^EN (human (endogenous in HeLa)) (UniProt P09496)
T1 sequence: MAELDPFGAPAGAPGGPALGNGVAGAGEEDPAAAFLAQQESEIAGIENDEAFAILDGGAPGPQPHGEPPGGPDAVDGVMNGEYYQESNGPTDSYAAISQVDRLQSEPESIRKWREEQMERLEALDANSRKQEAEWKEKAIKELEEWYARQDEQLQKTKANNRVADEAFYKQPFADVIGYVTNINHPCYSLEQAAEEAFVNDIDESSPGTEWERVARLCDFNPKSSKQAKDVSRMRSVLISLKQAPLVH

[2] = target: AP2μ^EN-TurboID-V5 (human (endogenous in HeLa)) (UniProt Q96CW1)
[3] = target: T2, AP4μ^EN-TurboID-V5 (human (endogenous in HeLa)) (UniProt O00189)
T2 sequence: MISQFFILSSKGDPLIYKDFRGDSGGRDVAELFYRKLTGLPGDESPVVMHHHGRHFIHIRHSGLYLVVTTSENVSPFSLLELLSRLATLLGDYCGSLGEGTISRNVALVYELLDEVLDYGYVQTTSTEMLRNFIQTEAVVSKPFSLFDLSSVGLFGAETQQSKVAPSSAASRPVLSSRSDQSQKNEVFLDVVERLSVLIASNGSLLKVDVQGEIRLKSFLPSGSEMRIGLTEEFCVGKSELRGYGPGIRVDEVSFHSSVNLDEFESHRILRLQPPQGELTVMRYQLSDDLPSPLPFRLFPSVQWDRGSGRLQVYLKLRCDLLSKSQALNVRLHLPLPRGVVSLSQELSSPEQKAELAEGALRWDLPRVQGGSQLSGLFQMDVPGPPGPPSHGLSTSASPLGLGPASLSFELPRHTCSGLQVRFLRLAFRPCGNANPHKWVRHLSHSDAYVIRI

[4] = target: T3, AP4μ^EN-TurboID-V5 (human (endogenous in HeLa)), O00189; details: remark: other sources report otherwise
T3 chain: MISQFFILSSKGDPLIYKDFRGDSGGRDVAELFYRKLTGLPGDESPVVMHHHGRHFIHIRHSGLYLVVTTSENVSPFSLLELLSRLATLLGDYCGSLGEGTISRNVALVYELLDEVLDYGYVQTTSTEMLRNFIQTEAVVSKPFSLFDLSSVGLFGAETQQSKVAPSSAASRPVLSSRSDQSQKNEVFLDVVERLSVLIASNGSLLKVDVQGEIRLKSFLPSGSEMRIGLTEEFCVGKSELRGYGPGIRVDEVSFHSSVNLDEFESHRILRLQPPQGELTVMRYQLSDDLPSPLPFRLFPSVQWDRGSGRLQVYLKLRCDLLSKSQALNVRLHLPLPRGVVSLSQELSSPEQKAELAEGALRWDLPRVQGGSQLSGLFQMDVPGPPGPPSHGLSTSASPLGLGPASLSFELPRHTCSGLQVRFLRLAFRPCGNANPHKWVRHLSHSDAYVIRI

B1: protein numb like (NUMB) (protein, UniProt P49757 1-651)
chain: MNKLRQSFRRKKDVYVPEASRPHQWQTDEEGVRTGKCSFPVKYLGHVEVDESRGMHICEDAVKRLKAERKFFKGFFGKTGKKAVKAVLWVSADGLRVVDEKTKDLIVDQTIEKVSFCAPDRNFDRAFSYICRDGTTRRWICHCFMAVKDTGERLSHAVGCAFAACLERKQKREKECGVTATFDASRTTFTREGSFRVTTATEQAEREEIMKQMQDAKKAETDKIVVGSSVAPGNTAPSPSSPTSPTSDATTSLEMNNPHAIPRRHAPIEQLARQGSFRGFPALSQKMSPFKRQLSLRINELPSTMQRKTDFPIKNAVPEVEGEAESISSLCSQITNAFSTPEDPFSSAPMTKPVTVVAPQSPTFQANGTDSAFHVLAKPAHTALAPVAMPVRETNPWAHAPDAANKEIAATCSGTEWGQSSGAASPGLFQAGHRRTPSEADRWLEEVSKSVRAQQPQASAAPLQPVLQPPPPTAISQPASPFQGNAFLTSQPVPVGVVPALQPAFVPAQSYPVANGMPYPAPNVPVVGITPSQMVANVFGTAGHPQAAHPHQSPSLVRQQTFPHYEASSATTSPFFKPPAQHLNGSAAFNGVDDGRLASADRHTEVPTGTCPVDPFEAQWAALENKSKQRTNPSPTNPFSSDLQKTFEIEL
What does the source list for B1?
binding [1]: binds; binding [2]: binds

B2: Tepsin (ENTDH2) (protein, UniProt Q96N21 1-525)
chain: MAAAPPLRDRLSFLHRLPILLKGTSDDDVPCPGYLFEEIAKISHESPGSSQCLLEYLLSRLHSSSGHGKLKVLKILLYLCSHGSSFFLLILKRNSAFIQEAAAFAGPPDPLHGNSLYQKVRAAAQDLGSTLFSDTVLPLAPSQPLGTPPATGMGSQARPHSTLQGFGYSKEHGRTAVRHQPGQAGGGWDELDSGPSSQNSSQNSDLSRVSDSGSHSGSDSHSGASREPGDLAERVEVVALSDCQQELSLVRTVTRGPRAFLSREEAQHFIKACGLLNCEAVLQLLTCHLRGTSECTQLRALCAIASLGSSDLLPQEHILLRTRPWLQELSMGSPGPVTNKATKILRHFEASCGQLSPARGTSAEPGPTAALPGPSDLLTDAVPLPGSQVFLQPLSSTPVSSRSPAPSSGMPSSPVPTPPPDASPIPAPGDPSEAEARLAESRRWRPERIPGGTDSPKRGPSSCAWSRDSLFAGMELVACPRLVGAGAAAGESCPDAPRAPQTSSQRTAAKEPPGSEPSAFAFLNA
With B2 as the binder, how does the binding [3] read?
Its binding is “binds”.

B3: FHF complex subunit (FAM160A1), Q05DH4 1-1040 (protein)
chain: MMSSVSTESKLQQAVSLQGVDPETCMIVFKNHWAQVVKILEKHDPLKNTQAKYGSIPPDEASAVQNYVEHMLFLLIEEQAKDAAMGPILEFVVSENIMEKLFLWSLRREFTDETKIEQLKMYEMLVTQSHQPLLHHKPILKPLMMLLSSCSGTTTPTVEEKLVVLLNQLCSILAKDPSILELFFHTSEDQGAANFLIFSLLIPFIHREGSVGQQARDALLFIMSLSAENTMVAHHIVENTYFCPVLATGLSGLYSSLPTKLEEKGEEWHCLLKDDWLLLPSLVQFMNSLEFCNAVIQVAHPLIRNQLVNYIYNGFLVPVLAPALHKVTVEEVMTTTAYLDLFLRSISEPALLEIFLRFILLHQHENVHILDTLTSRINTPFRLCVVSLALFRTLIGLHCEDVMLQLVLRYLIPCNHMMLSQRWAVKERDCYSVSAAKLLALTPVCCSSGITLTLGNQERDYILWSKCMHDTSGPVERPFPEAFSESACIVEYGKALDISYLQYLWEAHTNILRCMRDCRVWSALYDGDSPDPEMFLQSLTEEGSVSSACPVFGLPQQLPRKTGPQLAPRKDKSQTELEWDDSYDTGISSGADVGSPGPYDDLEVSGPPAPIDPPKHIQEMKKNALLLFKGSYIEESDFQDDVMVYRLCAEKDSEDMKDSQEEAARPPAEAQAEVQSVPINNGPLLSTQPETDSEEEWNRDNSDPFHSEPKEPKQEREPEAAPESNSELASPAPEAEHSSNLTAAHPESEELIAQYDQIIKELDSGAEGLMEQNYPTPDPLLLTKEEEGKEESKGEKEKEGKKELEDEEDDFDSFIAEMPAVETVPSPFVGRDEAAFASRHPVRTQSTPFTGPFISVVLSKLENMLENSLHVNLLLIGIITQLASYPQPLLRSFLLNTNMVFQPSVRSLYQVLASVKNKIEQFASVERDFPGLLIQAQQYLLFRVDMSDMTPAALTKDPIQEASRTGSGKNLLDGPPRVLQPFLTHRTKVAEAPPNLPLPVRNPMLAAALFPEFLKELAALAQEHSILCYKILGDFEDSCC
Which binding [4] does the source give for B3 here?
The binding was “binds”.

B4: ATG9A (protein, UniProt Q7Z3C6 1-839)
chain: MAQFDTEYQRLEASYSDSPPGEEDLLVHVAEGSKSPWHHIENLDLFFSRVYNLHQKNGFTCMLIGEIFELMQFLFVVAFTTFLVSCVDYDILFANKMVNHSLHPTEPVKVTLPDAFLPAQVCSARIQENGSLITILVIAGVFWIHRLIKFIYNICCYWEIHSFYLHALRIPMSALPYCTWQEVQARIVQTQKEHQICIHKRELTELDIYHRILRFQNYMVALVNKSLLPLRFRLPGLGEAVFFTRGLKYNFELILFWGPGSLFLNEWSLKAEYKRGGQRLELAQRLSNRILWIGIANFLLCPLILIWQILYAFFSYAEVLKREPGALGARCWSLYGRCYLRHFNELEHELQSRLNRGYKPASKYMNCFLSPLLTLLAKNGAFFAGSILAVLIALTIYDEDVLAVEHVLTTVTLLGVTVTVCRSFIPDQHMVFCPEQLLRVILAHIHYMPDHWQGNAHRSQTRDEFAQLFQYKAVFILEELLSPIVTPLILIFCLRPRALEIIDFFRNFTVEVVGVGDTCSFAQMDVRQHGHPQWLSAGQTEASVYQQAEDGKTELSLMHFAITNPGWQPPRESTAFLGFLKEQVQRDGAAASLAQGGLLPENALFTSIQSLQSESEPLSLIANVVAGSSCRGPPLPRDLQGSRHRAEVASALRSFSPLQPGQAPTGRAHSTMTGSGVDARTASSGSSVWEGQLQSLVLSEYASTEMSLHALYMHQLHKQQAQAEPERHVWHRRESDESGESAPDEGGEGARAPQSIPRSASYPCAAPRPGAPETTALHGGFQRRYGGITDPGTVPRVPSHFSRLPLGGWAEDGQSASRHPEPVPEEGSEDELPPQVHKV
Which binding [3] does the source give for B4 here?
Its binding is “binds”.

No constants are given. Whether binding was seen depends on the method and setting. Binding seen in cells or lysates may run through a third protein. Here binding means that the protein was enriched with, or labelled near, the bait; the list need not be complete. For some assays here: Tags and fused reporters may be left off the sequences shown.
